Here are results for one substance from paper PMC9986639.

Chains of the proteins cited; added tags and fusions are not shown.
UniProt P53350: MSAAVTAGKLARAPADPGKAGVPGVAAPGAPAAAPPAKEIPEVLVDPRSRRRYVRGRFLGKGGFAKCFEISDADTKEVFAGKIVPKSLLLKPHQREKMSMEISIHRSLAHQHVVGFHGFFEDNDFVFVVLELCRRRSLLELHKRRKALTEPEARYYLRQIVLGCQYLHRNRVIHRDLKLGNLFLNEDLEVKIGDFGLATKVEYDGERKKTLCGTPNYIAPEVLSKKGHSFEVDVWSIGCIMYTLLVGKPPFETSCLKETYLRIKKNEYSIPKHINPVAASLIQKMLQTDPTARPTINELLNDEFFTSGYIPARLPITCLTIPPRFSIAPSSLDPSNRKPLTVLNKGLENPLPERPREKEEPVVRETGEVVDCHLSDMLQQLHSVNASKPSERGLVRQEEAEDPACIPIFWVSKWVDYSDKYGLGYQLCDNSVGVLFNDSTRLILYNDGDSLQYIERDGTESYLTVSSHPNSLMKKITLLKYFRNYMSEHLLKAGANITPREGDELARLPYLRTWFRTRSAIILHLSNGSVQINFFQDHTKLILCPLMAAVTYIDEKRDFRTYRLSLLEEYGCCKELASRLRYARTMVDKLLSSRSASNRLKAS

These are yes or no findings as the source states them, for the method shown. Binding seen in cells or lysates may run through a third protein. Some results given as binding are weak or reduced against the parent protein; the word gives no strength. Where a sequence is shown, tags or fusion partners need not be part of it.

This assay has as its target T1, TXN1-6×His (thioredoxin 1) (UniProt P10599).
T1 sequence: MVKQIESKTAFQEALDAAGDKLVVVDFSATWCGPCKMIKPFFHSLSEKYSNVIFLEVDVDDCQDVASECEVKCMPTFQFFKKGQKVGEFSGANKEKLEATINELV
The assay is described as follows: cross-linking; live HEK293T cells transfected with the His-tagged bait, 0.5 mM BVSB or PDES (1 h at 4°C and 2 h at RT, in PBS); lysis in 8 M urea, Ni-NTA, trypsin, SCX fractions; cross-linked peptides identified by LC-MS/MS (pLink2).

In the case of “PLK1 (from UniProt P53350 1-603) (enzyme)”, the binding result was “binds”.
